This is one part of the list. The data scatter; read single values as rough.
Tests used:
[1] = compound: ClCC(=O)N[C@@H]1CCCc2ccccc12; assay: log2 mean competition ratio of IA-DTB cysteine labelling (DMSO/compound) (log2 ratio); higher = stronger cysteine engagement by compound; settings: treatment time: 4 h, cell line lysate: HEK293T
Experimental: (§1)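 IA-DTB competitive cysteine chemoproteomics in HEK293T RIPA lysate. Lysates were treated with compound 29 or 30 at 50 or 200 µM for 4 h, then IA-DTB (500 µM, 1 h), trypsin-digested, NeutrAvidin-enriched and analysed by diaPASEF. Competition ratio = intensity DMSO / intensity compound (n=4 treated, n=64 DMSO); binding: mean log2 CR ≥ 1 and p ≤ 0.05 plus QC filters. Target is the cysteine site.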

Sequences of proteins named here, by UniProt entry; tags and fusion partners are left off. A change or cut given only in a name is not applied to a line headed by its entry. Residues count along the entry.
UniProt Q9UIG0: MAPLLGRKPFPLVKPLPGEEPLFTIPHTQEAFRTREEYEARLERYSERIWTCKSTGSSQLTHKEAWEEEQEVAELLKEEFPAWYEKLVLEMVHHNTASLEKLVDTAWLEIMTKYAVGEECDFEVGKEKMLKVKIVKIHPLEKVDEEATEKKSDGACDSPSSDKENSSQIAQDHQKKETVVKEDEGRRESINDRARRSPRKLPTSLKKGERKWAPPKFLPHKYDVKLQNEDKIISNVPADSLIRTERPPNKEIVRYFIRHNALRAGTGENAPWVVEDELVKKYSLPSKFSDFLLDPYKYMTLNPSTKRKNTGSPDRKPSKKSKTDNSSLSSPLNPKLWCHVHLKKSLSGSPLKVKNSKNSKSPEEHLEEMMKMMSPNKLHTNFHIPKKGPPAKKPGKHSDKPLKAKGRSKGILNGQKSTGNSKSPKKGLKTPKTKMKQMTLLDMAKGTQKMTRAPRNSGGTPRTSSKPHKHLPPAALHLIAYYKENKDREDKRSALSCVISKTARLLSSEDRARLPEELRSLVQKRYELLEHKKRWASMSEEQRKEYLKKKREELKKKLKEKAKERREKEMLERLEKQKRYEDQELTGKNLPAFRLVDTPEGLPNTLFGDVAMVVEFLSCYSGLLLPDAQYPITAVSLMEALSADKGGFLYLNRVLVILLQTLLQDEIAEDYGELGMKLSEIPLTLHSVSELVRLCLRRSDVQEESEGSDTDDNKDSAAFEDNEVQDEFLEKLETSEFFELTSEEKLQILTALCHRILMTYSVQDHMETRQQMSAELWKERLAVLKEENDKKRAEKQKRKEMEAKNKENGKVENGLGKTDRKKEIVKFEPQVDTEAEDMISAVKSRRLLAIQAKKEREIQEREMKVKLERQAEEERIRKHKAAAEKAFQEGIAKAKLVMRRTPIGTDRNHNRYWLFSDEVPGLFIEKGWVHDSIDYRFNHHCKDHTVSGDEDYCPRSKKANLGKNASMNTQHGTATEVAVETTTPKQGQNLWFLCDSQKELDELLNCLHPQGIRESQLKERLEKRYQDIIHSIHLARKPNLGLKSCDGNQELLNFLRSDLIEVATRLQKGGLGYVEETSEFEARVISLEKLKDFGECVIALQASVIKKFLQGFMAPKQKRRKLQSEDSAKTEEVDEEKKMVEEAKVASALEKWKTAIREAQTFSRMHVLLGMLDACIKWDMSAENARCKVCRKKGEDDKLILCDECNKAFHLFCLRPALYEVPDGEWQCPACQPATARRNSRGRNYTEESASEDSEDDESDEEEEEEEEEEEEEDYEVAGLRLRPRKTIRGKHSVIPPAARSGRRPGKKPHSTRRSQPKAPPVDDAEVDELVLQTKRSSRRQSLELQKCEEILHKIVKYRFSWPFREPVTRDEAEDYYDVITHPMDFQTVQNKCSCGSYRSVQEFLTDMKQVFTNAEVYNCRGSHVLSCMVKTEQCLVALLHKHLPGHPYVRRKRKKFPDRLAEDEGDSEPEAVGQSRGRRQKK
UniProt O95816: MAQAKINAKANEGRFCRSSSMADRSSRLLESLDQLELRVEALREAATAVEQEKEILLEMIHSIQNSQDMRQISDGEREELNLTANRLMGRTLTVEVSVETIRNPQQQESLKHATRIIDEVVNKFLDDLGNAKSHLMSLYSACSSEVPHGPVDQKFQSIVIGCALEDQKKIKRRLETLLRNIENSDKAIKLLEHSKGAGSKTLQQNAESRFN
UniProt Q02338: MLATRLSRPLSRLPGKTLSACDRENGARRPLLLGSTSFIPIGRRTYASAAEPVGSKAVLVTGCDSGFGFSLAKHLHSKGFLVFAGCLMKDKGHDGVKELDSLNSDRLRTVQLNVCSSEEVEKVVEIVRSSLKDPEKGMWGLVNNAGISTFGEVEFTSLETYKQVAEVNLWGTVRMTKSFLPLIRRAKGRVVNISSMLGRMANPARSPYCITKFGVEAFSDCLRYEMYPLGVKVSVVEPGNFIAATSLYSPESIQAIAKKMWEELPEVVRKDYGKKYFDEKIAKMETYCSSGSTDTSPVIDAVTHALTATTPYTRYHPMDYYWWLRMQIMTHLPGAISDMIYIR
UniProt O95817, 150-170: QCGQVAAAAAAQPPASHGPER
UniProt O95817, 366-388: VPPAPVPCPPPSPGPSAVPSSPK
UniProt P56134: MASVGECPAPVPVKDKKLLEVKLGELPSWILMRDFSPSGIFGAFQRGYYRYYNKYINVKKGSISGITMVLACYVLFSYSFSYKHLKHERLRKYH
UniProt Q8TDH9, 2-21: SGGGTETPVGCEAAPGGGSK
UniProt P98194: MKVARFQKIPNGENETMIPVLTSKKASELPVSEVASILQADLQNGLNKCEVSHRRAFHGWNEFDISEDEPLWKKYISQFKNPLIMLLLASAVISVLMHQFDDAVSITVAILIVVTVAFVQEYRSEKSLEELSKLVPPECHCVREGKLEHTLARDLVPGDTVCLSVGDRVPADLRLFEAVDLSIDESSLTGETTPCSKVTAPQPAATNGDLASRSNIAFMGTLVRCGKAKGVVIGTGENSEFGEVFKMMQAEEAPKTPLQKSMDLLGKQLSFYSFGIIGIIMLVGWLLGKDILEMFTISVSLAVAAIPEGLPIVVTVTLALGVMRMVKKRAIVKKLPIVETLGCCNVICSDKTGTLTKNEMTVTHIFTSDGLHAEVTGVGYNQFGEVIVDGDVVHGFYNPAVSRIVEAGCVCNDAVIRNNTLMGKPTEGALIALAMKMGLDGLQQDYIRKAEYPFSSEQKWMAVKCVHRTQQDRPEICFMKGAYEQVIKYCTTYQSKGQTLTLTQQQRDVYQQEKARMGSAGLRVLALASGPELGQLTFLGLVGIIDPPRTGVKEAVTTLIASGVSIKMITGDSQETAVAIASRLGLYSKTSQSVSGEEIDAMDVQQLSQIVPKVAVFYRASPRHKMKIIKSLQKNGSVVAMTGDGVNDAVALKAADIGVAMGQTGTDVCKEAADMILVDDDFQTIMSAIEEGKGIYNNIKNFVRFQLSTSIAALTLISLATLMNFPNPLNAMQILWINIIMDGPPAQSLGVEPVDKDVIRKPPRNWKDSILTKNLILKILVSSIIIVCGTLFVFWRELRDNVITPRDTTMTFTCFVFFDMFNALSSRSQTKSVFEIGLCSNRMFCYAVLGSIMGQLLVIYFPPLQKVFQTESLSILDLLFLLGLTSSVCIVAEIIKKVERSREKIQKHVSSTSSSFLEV
UniProt Q8IZT6: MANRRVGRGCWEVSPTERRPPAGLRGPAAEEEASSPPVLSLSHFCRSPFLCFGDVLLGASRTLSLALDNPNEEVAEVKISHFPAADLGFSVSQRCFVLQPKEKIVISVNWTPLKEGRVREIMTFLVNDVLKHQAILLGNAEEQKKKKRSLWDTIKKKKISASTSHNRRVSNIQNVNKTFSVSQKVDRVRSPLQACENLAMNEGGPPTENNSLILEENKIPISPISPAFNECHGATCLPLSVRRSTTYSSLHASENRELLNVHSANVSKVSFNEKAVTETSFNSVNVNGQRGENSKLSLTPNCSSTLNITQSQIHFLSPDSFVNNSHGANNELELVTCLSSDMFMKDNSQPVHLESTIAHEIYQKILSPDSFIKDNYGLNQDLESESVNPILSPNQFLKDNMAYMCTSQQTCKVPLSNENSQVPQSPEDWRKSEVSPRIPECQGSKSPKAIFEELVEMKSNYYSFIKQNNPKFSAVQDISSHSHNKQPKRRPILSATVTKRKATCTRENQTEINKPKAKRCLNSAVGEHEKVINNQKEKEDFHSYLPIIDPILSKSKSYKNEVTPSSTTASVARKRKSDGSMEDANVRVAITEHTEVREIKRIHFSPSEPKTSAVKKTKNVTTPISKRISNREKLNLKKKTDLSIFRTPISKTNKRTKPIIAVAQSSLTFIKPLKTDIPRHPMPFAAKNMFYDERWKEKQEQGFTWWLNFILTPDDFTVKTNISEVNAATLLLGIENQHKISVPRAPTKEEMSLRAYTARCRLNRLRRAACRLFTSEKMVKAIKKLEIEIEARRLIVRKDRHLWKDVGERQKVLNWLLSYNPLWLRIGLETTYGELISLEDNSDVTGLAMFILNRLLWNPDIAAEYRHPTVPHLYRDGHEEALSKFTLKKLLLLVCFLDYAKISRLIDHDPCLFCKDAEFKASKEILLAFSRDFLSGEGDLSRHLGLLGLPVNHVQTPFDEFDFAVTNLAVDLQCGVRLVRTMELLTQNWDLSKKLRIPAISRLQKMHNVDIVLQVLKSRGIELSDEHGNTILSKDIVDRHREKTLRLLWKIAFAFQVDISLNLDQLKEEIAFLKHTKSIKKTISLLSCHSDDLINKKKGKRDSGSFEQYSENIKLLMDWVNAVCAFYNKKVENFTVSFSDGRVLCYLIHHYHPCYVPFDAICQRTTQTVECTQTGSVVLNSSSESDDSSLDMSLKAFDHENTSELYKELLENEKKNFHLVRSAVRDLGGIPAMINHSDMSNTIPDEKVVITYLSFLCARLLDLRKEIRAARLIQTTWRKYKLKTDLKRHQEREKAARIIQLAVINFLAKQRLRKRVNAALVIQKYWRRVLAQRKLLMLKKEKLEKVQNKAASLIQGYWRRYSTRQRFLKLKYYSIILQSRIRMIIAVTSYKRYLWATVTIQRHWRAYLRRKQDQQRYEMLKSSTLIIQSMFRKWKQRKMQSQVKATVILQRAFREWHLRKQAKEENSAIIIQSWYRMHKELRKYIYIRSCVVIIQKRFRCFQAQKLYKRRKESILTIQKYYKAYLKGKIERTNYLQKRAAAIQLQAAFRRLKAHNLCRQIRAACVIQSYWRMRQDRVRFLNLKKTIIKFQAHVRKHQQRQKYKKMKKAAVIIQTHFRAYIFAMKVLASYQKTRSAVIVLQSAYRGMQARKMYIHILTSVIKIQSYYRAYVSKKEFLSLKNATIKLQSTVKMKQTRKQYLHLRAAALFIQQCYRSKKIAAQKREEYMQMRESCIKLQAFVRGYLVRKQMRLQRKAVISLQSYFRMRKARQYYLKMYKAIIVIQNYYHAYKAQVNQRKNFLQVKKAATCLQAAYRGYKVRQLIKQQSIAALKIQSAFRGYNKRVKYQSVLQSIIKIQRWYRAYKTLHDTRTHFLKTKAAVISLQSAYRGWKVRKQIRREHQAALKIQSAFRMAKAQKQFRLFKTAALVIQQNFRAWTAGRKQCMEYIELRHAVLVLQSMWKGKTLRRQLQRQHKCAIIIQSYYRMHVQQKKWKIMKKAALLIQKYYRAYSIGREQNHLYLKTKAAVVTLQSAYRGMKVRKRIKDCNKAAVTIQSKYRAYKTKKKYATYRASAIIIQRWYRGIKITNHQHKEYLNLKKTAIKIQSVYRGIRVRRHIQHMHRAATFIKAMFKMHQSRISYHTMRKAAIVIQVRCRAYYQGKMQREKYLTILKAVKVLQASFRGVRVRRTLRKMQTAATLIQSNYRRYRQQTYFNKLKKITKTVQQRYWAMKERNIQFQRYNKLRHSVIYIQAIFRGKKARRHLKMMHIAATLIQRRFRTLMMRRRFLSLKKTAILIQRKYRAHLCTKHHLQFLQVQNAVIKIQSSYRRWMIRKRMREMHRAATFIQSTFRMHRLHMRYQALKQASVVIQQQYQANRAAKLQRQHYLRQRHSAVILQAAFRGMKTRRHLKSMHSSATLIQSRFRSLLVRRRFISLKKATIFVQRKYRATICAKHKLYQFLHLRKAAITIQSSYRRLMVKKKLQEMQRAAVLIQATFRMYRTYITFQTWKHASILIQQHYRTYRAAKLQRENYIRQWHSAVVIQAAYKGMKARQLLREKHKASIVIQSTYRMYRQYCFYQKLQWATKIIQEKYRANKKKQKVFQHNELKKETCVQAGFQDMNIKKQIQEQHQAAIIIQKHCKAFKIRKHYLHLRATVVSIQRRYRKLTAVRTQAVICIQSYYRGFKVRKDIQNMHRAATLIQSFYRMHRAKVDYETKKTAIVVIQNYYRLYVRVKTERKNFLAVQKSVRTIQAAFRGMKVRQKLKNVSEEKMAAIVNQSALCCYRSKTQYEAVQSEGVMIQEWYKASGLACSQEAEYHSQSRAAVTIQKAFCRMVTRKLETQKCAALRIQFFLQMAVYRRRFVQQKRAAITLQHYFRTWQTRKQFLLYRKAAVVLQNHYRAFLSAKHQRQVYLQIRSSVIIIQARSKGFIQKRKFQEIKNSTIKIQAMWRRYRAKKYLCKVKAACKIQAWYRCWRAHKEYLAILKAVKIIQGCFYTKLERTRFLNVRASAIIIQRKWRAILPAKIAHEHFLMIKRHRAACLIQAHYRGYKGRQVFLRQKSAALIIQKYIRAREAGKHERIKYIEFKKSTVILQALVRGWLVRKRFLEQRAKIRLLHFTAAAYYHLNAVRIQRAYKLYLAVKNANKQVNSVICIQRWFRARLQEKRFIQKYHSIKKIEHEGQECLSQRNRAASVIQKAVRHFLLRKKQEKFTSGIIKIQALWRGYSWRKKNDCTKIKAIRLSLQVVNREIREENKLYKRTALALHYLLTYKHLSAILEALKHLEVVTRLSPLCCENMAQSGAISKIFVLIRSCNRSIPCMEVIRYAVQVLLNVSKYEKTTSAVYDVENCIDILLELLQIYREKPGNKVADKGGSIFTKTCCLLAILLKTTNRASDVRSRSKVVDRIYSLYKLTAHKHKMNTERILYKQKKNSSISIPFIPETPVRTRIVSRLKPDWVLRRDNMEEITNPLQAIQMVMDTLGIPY

[2] = compound: ClCC(=O)N[C@H]1CCCc2ccccc12; assay: as above; settings: treatment time: 4 h, cell line lysate: HEK293T
Experimental: as §1

| Target | log2 mean competition ratio ([1]; 50 µM) | log2 mean competition ratio ([1]; 200 µM) | log2 mean competition ratio ([2]; 200 µM) | log2 mean competition ratio ([2]; 50 µM) |
| --- | --- | --- | --- | --- |
| BCORL1 C1460 (UniProt Q5H9F3) | 0.0233 | -0.11 | – | – |
| BAZ1B C953 (UniProt Q9UIG0) | 0.202 | 0.277 | – | – |
| ATAD1 C359 (UniProt Q8NBU5) | -0.0916 | -0.0514 | – | – |
| ATRX C1844 (UniProt P46100) | -0.0954 | -0.00898 | – | – |
| BACH2 C370 (UniProt Q9BYV9) | -0.0111 | 0.197 | – | – |
| BCR C1074 (UniProt P11274) | -0.266 | 0.17 | – | – |
| BAZ1A C105 (UniProt Q9NRL2) | -0.0623 | -0.0456 | – | – |
| BMP2K C32 (UniProt Q9NSY1) | -0.221 | -0.171 | – | – |
| ASRGL1 C97 (UniProt Q7L266) | -0.187 | -0.207 | – | – |
| BIRC6 C3830 | 0.256 | -0.386 | – | – |
| BACH2 C328 (UniProt Q9BYV9) | -0.173 | 0.862 | – | – |
| BAG2 C162 (UniProt O95816) | -0.118 | 0.275 | – | – |
| ATIC C101 (UniProt P31939) | 0.0448 | -0.0235 | – | – |
| BDH1 C221 (UniProt Q02338) | – | 0.0353 | – | – |
| ATG9A C197 (UniProt Q7Z3C6) | 0.0201 | -0.398 | – | – |
| BAG3 C151 (UniProt O95817) | 0.147 | -0.426 | – | – |
| ATP5MF C7 (UniProt P56134) | -0.265 | -0.202 | – | – |
| ATRX C1718 (UniProt P46100) | 0.0065 | 0.23 | – | – |
| B3GALT6 C32 (UniProt Q96L58) | -0.131 | -0.135 | – | – |
| BHLHE40 C219 (UniProt O14503) | 0.00191 | -0.13 | – | – |
| BIRC6 C543 | -0.178 | -0.196 | – | – |
| ATP6V0A2 C680 (UniProt Q9Y487) | 0.06 | 0.0632 | – | – |
| ATM C384 (UniProt Q13315) | -0.138 | 0.184 | – | – |
| ATP2B4 C537 (UniProt P23634) | 0.0453 | -0.346 | – | – |

Whole records as entered above. Order of values: log2 mean competition ratio ([1]; 50 µM)	log2 mean competition ratio ([1]; 200 µM)	log2 mean competition ratio ([2]; 200 µM)	log2 mean competition ratio ([2]; 50 µM)
BAG3 C151 (UniProt O95817) as listed: 0.147	-0.426	–	–
BCORL1 C1460 (UniProt Q5H9F3) as listed: 0.0233	-0.11	–	–
BIRC6 C543 as listed: -0.178	-0.196	–	–

Following part

| Target | log2 mean competition ratio ([1]; 50 µM) | log2 mean competition ratio ([1]; 200 µM) | log2 mean competition ratio ([2]; 200 µM) | log2 mean competition ratio ([2]; 50 µM) |
| --- | --- | --- | --- | --- |
| ATAD2 C1388 (UniProt Q6PL18) | -0.305 | 0.397 | – | – |
| BLOC1S5 C12 (UniProt Q8TDH9) | -0.132 | -0.251 | – | – |
| ATP2C1 C669 (UniProt P98194) | -0.271 | 0.15 | – | – |
| AURKA C49 (UniProt O14965) | 0.378 | 0.272 | – | – |
| B3GALNT2 C198 (UniProt Q8NCR0) | -0.00213 | 0.211 | – | – |
| BEND3 C767 (UniProt Q5T5X7) | 0.105 | -0.00794 | – | – |
| ATP2B4 C639 (UniProt P23634) | -0.285 | 0.08 | – | – |
| ASRGL1 C176 (UniProt Q7L266) | -0.0702 | 0.141 | – | – |
| BIRC6 C1236 | -0.0635 | 0.168 | – | – |
| ATXN10 C283 (UniProt Q9UBB4) | -0.302 | 0.0779 | – | – |
| BAG3 C373 (UniProt O95817) | -0.315 | -0.247 | – | – |
| BLM C120 (UniProt P54132) | -0.0367 | -0.0992 | – | – |
| BCOR C1488 (UniProt Q6W2J9) | 0.228 | 0.312 | – | – |
| BCORL1 C617 (UniProt Q5H9F3) | -0.18 | -0.00428 | – | – |
| BACH1 C435 (UniProt O14867) | 0.0144 | 0.0715 | – | – |
| BAZ1B C1428 (UniProt Q9UIG0) | 0.221 | 0.00227 | – | – |
| BAZ2A C1037 (UniProt Q9UIF9) | 0.185 | -0.162 | – | – |
| AVEN C193 (UniProt Q9NQS1) | 0.538 | -0.00819 | – | – |
| ATAD3A C563 (UniProt Q9NVI7) | 0.376 | 0.0205 | – | – |
| ATF7 C398 (UniProt P17544) | 0.586 | 0.253 | 0.123 | – |
| ATAD2 C1261 (UniProt Q6PL18) | -0.164 | 0.0326 | – | – |
| ATP6V1A C394 (UniProt P38606) | -0.138 | -0.198 | – | – |
| ATP6V0D1 C326 (UniProt P61421) | 0.0551 | 0.179 | – | – |
| BAZ1B C1420 (UniProt Q9UIG0) | 0.0201 | 0.53 | 0.625 | 0.0685 |

| Target | log2 mean competition ratio ([1]; 50 µM) | log2 mean competition ratio ([1]; 200 µM) | log2 mean competition ratio ([2]; 200 µM) | log2 mean competition ratio ([2]; 50 µM) |
| --- | --- | --- | --- | --- |
| ATP13A3 C168 (UniProt Q9H7F0) | 0.0635 | 0.0284 | -0.319 | – |
| ATP7B C268 (UniProt P35670) | 0.0228 | 0.0423 | -0.207 | 0.0623 |
| ATG3 C182 (UniProt Q9NT62) | -0.00371 | 0.126 | – | – |
| BDP1 C2126 (UniProt A6H8Y1) | -0.269 | -0.476 | -0.384 | – |
| BIRC6 C3404 | -0.182 | 0.0901 | 0.0269 | -0.0293 |
| ASPM C95 (UniProt Q8IZT6) | 0.124 | -0.13 | – | – |
| ATP2C1 C839 (UniProt P98194) | -0.406 | -0.434 | -0.389 | – |
| ATP13A3 C1220 (UniProt Q9H7F0) | -0.471 | -0.456 | 0.0636 | – |
| ASPM C520 (UniProt Q8IZT6) | 0.253 | 0.106 | – | – |
| ATR C1721 (UniProt Q13535) | -0.0652 | 0.129 | – | – |
| BCOR_(C1334,C1334,C1341,C1341) (UniProt Q6W2J9) | -0.533 | 0.444 | – | -0.322 |
| ATAD1 C310 (UniProt Q8NBU5) | -0.133 | 0.0371 | – | – |
| ATP2C1 C477 (UniProt P98194) | 0.287 | 0.22 | 0.227 | -0.45 |
| ATG2B C891 (UniProt Q96BY7) | -0.378 | 0.0793 | – | – |
| BCL2L13 C103 (UniProt Q9BXK5) | -0.118 | 0.208 | – | – |
| ASPM C2805 (UniProt Q8IZT6) | 0.0119 | -0.311 | – | – |
| ATP13A2 C365 (UniProt Q9NQ11) | -0.105 | 0.0856 | – | – |
| ATM C1286 (UniProt Q13315) | 0.0856 | -0.289 | – | – |
| BCAS3 C479 (UniProt Q9H6U6) | 0.124 | -0.151 | -0.268 | 0.0157 |
| ATP6V1H C312 (UniProt Q9UI12) | 0.0548 | 0.394 | – | – |
| BAZ1B C120 (UniProt Q9UIG0) | -0.258 | -0.16 | – | – |
| ATG7 C322 (UniProt O95352) | 0.113 | 0.101 | – | – |
| BAHD1 C535 (UniProt Q8TBE0) | 0.325 | 0.0517 | – | – |
| B4GALT7 C214 (UniProt Q9UBV7) | 0.261 | -0.104 | -0.0773 | -0.139 |

— the supplement of paper PMC11732987, “Enantioselective OTUD7B fragment discovery through chemoproteomics screening and high-throughput optimisation” (Communications Chemistry, 2025)
